Data taken from patent US20190119700A1.
Results are given in words; binding and its absence hold for the method and conditions named. Some entries that bind do so weakly or less than the wild type. Where a sequence is shown, tags or fusion partners need not be part of it.

Target: T1, IRF7-GlucC fusion protein (human), Q92985
T1 chain: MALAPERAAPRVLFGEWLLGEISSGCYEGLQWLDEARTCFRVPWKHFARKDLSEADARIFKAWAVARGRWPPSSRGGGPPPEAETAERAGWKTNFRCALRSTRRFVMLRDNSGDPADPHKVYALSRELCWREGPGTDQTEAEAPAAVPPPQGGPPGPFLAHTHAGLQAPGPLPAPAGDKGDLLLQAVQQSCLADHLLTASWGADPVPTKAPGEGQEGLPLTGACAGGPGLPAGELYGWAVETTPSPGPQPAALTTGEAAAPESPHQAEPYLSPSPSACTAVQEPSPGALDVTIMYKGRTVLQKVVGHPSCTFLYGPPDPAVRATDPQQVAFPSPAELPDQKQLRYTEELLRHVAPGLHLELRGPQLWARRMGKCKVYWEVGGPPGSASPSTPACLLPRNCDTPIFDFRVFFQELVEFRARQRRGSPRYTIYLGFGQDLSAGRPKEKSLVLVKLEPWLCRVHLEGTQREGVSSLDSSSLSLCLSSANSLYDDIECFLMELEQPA
Experiment: split Gaussia luciferase complementation (BiLC) in stably transduced THP-1 cells, luciferase activity of lysates after stimulation
Conditions: remark: other sources report otherwise

B1: IRF7-GlucN fusion protein, Q92985 1-503 (protein, UniProt Q92985 1-503, looked up, not shown: large carriers)
chain: T1 chain
**Q.** With B1 as the binder, how does the binding read?
**A.** Its binding is “binds”.
